Data as given in PubChem BioAssay AID1259259 (Sanger Institute, 2017).
Here is an unselected part of 794 deposited reagents. Of all reagents, 9 (1.1%) got an active call. 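Calls rest on knock-down alone, not drug synergy; viability values seem capped at 1.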 Further read-outs or replicates are left out here. Not stated in the record: the amount of reagent, the time to read-out.

- Aim: 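Kinase silencing that lowers colorectal cancer cell viability alone or with drugs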 (primary screen)
- System: SW1463 human colorectal cancer cells
- Reagent: siRNA pool against human genes
- Treatment: DMSO vehicle, or one anchor drug: BYL719 at 1 µM, cetuximab at 5 µg/ml, or trametinib at 10 nM
- Detection: 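Viability relative to control pool 2 (non-targeting) averaged over replicates, robust z-score for knock-down with no drug, and for each anchor drug the mean synergy score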
- Direction: robust z-score, knock-down alone: higher = more viable cells after knock-down; viability, knock-down alone: higher = more viable cells
- Units: viability, knock-down alone in fraction of control
- Call rule: 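Knock-down called essential when its robust z-score without drug falls below -3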
- Meaning of the calls: active = essential: viability loss from knock-down alone; inactive = no change from knock-down alone

EFNA5 [SID152151552]: robust z-score, knock-down alone = 0.725; viability, knock-down alone = 0.974; call = inactive
FES [SID56478510]: robust z-score, knock-down alone = -1.18; viability, knock-down alone = 0.852; call = inactive
PASK [SID56478950]: robust z-score, knock-down alone = 1.05; viability, knock-down alone = 0.995; call = inactive
AURKA [SID135620696]: robust z-score, knock-down alone = -3.3; viability, knock-down alone = 0.716; call = active
STAG2 [SID152146952]: robust z-score, knock-down alone = 1.13; viability, knock-down alone = 1; call = inactive
IKBKE [SID56478721]: robust z-score, knock-down alone = 1.13; viability, knock-down alone = 1; call = inactive
PHKA1 [SID152155157]: robust z-score, knock-down alone = 0.026; viability, knock-down alone = 0.929; call = inactive
SRMS [SID56479047]: robust z-score, knock-down alone = 0.969; viability, knock-down alone = 0.99; call = inactive
GTF2H1 [SID56479243]: robust z-score, knock-down alone = -0.183; viability, knock-down alone = 0.916; call = inactive
AK7 [SID152153423]: robust z-score, knock-down alone = -0.262; viability, knock-down alone = 0.911; call = inactive
FASTK [SID56479004]: robust z-score, knock-down alone = -1.27; viability, knock-down alone = 0.846; call = inactive
ETNK2 [SID56478982]: robust z-score, knock-down alone = 1.13; viability, knock-down alone = 1; call = inactive
